Values from PubChem BioAssay AID493246 (Drosophila RNAi Screening Center, 2011).

- Screen: 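Genes fly cells need to grow and stay alive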 (primary screen)
- Cells: Drosophila Kc and S2R+ cells
- Knock-down reagent: long dsRNA against Drosophila genes
- Measured: 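Raw, unnormalised count of remaining cells in each well; per-plate z-scores of cell number underlie the calls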
- Reading the numbers: Kc cell number and S2R+ cell number: higher = more cells remaining
- Hit rule: 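Counted as a hit if cell number falls by a z-score of at least 3 within its plate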
In all, the deposit lists about 21,000 reagents; this is a random part of those with a known target gene and a result. Over the whole deposit, 429 (2%) were called active. 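Values are raw and not normalised between plates; calls rest on per-plate z-scores that were not deposited.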 Not stated in the record: the amount of reagent, the time to read-out.

Gene | amplicon | Kc cell number, rep 1 | Kc cell number, rep 2 | S2R+ cell number, rep 1 | S2R+ cell number, rep 2 | activity call
CG33127 | DRSC00011 | 1.68e6 | 1.69e6 | 1.04e6 | 1.22e6 | inactive
betaNACtes2 | DRSC19792 | 1.54e6 | 1.55e6 | 1.08e6 | 1.15e6 | inactive
Pka-R2 | DRSC07509 | 1.86e6 | 1.81e6 | 1.33e6 | 1.63e6 | inactive
CG12511 | DRSC02171 | 1.77e6 | 2.06e6 | 1.14e6 | 1.30e6 | inactive
Poxn | DRSC05589 | 1.56e6 | 1.61e6 | 1.15e6 | 1.29e6 | inactive
Poxn | DRSC07512 | 1.62e6 | 1.66e6 | 1.12e6 | 1.30e6 | inactive
NKCC | DRSC12140 | 1.77e6 | 1.85e6 | 1.22e6 | 1.34e6 | inactive
NKCC | DRSC12311 | 1.38e6 | 1.50e6 | 1.32e6 | 1.40e6 | inactive
mab-21 | DRSC18791 | 1.87e6 | 1.79e6 | 1.16e6 | 1.29e6 | inactive
conv | DRSC07213 | 1.53e6 | 1.47e6 | 1.19e6 | 1.24e6 | inactive
Semp1 | DRSC01874 | 1.65e6 | 1.69e6 | 1.36e6 | 1.46e6 | inactive
Idgf6 | DRSC07360 | 1.46e6 | 1.50e6 | 1.08e6 | 1.23e6 | inactive
Np | DRSC06089 | 1.63e6 | 1.60e6 | 1.36e6 | 1.54e6 | inactive
Np | DRSC07094 | 1.68e6 | 1.79e6 | 1.39e6 | 1.51e6 | inactive
mask | DRSC15370 | 1.61e6 | 1.52e6 | 8.87e5 | 9.37e5 | inactive
mask | DRSC16005 | 1.31e6 | 1.44e6 | 1.02e6 | 1.06e6 | inactive
mask | DRSC16018 | 1.42e6 | 1.46e6 | 1.03e6 | 1.06e6 | inactive
Gasp | DRSC12349 | 1.60e6 | 1.59e6 | 1.30e6 | 1.38e6 | inactive
CG3592 | DRSC18315 | 1.47e6 | 1.46e6 | 1.02e6 | 1.13e6 | inactive
Acp65Aa | DRSC09663 | 1.56e6 | 1.44e6 | 1.19e6 | 1.26e6 | inactive
rk | DRSC03602 | 1.53e6 | 1.57e6 | 1.23e6 | 1.37e6 | inactive
CG7294 | DRSC03041 | 1.57e6 | 1.56e6 | 1.11e6 | 1.26e6 | inactive
CG14079 | DRSC10083 | 1.42e6 | 1.51e6 | 1.23e6 | 1.35e6 | inactive
PpV | DRSC18700 | 1.43e6 | 1.44e6 | 1.02e6 | 1.13e6 | inactive
CG11523 | DRSC11669 | 1.47e6 | 1.48e6 | 1.31e6 | 1.29e6 | inactive
CG32718 | DRSC17538 | 1.30e6 | 1.55e6 | 1.15e6 | 1.20e6 | inactive
tkv | DRSC00860 | 1.98e6 | 1.72e6 | 1.17e6 | 1.35e6 | inactive
tkv | DRSC03623 | 1.31e6 | 1.31e6 | 6.33e5 | 1.09e6 | inactive

Part of the list above in another layout:
NKCC [DRSC12140]
- Kc cell number, rep 1: 1.77e6
- Kc cell number, rep 2: 1.85e6
- S2R+ cell number, rep 1: 1.22e6
- S2R+ cell number, rep 2: 1.34e6
- activity call: inactive

NKCC [DRSC12311]
- Kc cell number, rep 1: 1.38e6
- Kc cell number, rep 2: 1.50e6
- S2R+ cell number, rep 1: 1.32e6
- S2R+ cell number, rep 2: 1.40e6
- activity call: inactive

mab-21 [DRSC18791]
- Kc cell number, rep 1: 1.87e6
- Kc cell number, rep 2: 1.79e6
- S2R+ cell number, rep 1: 1.16e6
- S2R+ cell number, rep 2: 1.29e6
- activity call: inactive

conv [DRSC07213]
- Kc cell number, rep 1: 1.53e6
- Kc cell number, rep 2: 1.47e6
- S2R+ cell number, rep 1: 1.19e6
- S2R+ cell number, rep 2: 1.24e6
- activity call: inactive

Semp1 [DRSC01874]
- Kc cell number, rep 1: 1.65e6
- Kc cell number, rep 2: 1.69e6
- S2R+ cell number, rep 1: 1.36e6
- S2R+ cell number, rep 2: 1.46e6
- activity call: inactive

Idgf6 [DRSC07360]
- Kc cell number, rep 1: 1.46e6
- Kc cell number, rep 2: 1.50e6
- S2R+ cell number, rep 1: 1.08e6
- S2R+ cell number, rep 2: 1.23e6
- activity call: inactive

Np [DRSC06089]
- Kc cell number, rep 1: 1.63e6
- Kc cell number, rep 2: 1.60e6
- S2R+ cell number, rep 1: 1.36e6
- S2R+ cell number, rep 2: 1.54e6
- activity call: inactive

Np [DRSC07094]
- Kc cell number, rep 1: 1.68e6
- Kc cell number, rep 2: 1.79e6
- S2R+ cell number, rep 1: 1.39e6
- S2R+ cell number, rep 2: 1.51e6
- activity call: inactive

mask [DRSC15370]
- Kc cell number, rep 1: 1.61e6
- Kc cell number, rep 2: 1.52e6
- S2R+ cell number, rep 1: 8.87e5
- S2R+ cell number, rep 2: 9.37e5
- activity call: inactive

mask [DRSC16005]
- Kc cell number, rep 1: 1.31e6
- Kc cell number, rep 2: 1.44e6
- S2R+ cell number, rep 1: 1.02e6
- S2R+ cell number, rep 2: 1.06e6
- activity call: inactive

Next results follow.
Gene | amplicon | Kc cell number, rep 1 | Kc cell number, rep 2 | S2R+ cell number, rep 1 | S2R+ cell number, rep 2 | activity call
CG7218 | DRSC16216 | 1.59e6 | 1.62e6 | 1.30e6 | 1.27e6 | inactive
ppk13 | DRSC02382 | 1.69e6 | 1.72e6 | 1.31e6 | 3.45e5 | inactive
HHEX | DRSC16186 | 1.45e6 | 1.47e6 | 8.08e5 | 9.47e5 | inactive
RpL22 | DRSC18707 | 8.23e5 | 8.13e5 | 5.33e5 | 6.71e5 | active
Ubc7 | DRSC20299 | 1.47e6 | 1.47e6 | 1.04e6 | 1.13e6 | inactive
Alg12 | DRSC16416 | 1.37e6 | 1.52e6 | 1.36e6 | 1.44e6 | inactive
hay | DRSC11354 | 1.42e6 | 1.49e6 | 1.15e6 | 1.13e6 | inactive
SP | DRSC09664 | 1.28e6 | 1.26e6 | 1.27e6 | 1.30e6 | inactive
spz3 | DRSC02391 | 1.43e6 | 1.63e6 | 1.21e6 | 1.38e6 | inactive
spz3 | DRSC03008 | 1.65e6 | 1.63e6 | 1.18e6 | 1.38e6 | inactive
pain | DRSC04273 | 1.56e6 | 1.68e6 | 1.46e6 | 1.65e6 | inactive
psd | DRSC03131 | 1.58e6 | 1.42e6 | 1.12e6 | 1.26e6 | inactive
CG4629 | DRSC00659 | 1.58e6 | 1.63e6 | 1.01e6 | 1.19e6 | inactive
CG14478 | DRSC06450 | 1.44e6 | 1.53e6 | 1.14e6 | 1.26e6 | inactive
CG10343 | DRSC02041 | 1.64e6 | 1.70e6 | 1.28e6 | 2.72e5 | inactive
qtc | DRSC02364 | 1.26e6 | 1.37e6 | 5.46e5 | 6.62e5 | inactive
qtc | DRSC02365 | 1.63e6 | 1.56e6 | 1.18e6 | 1.38e6 | inactive
CG17049 (retired record) | DRSC06650 | 1.49e6 | 1.54e6 | 1.16e6 | 1.25e6 | inactive
CG8915 | DRSC20119 | 1.51e6 | 1.56e6 | 1.03e6 | 1.10e6 | inactive
CG42269 | DRSC10670 | 1.40e6 | 1.42e6 | 1.16e6 | 1.20e6 | inactive
CG42269 | DRSC10672 | 1.57e6 | 1.44e6 | 1.21e6 | 1.24e6 | inactive
omd | DRSC16507 | 1.33e6 | 1.40e6 | 9.91e5 | 1.08e6 | inactive
Cpr64Ac | DRSC08462 | 1.66e6 | 1.46e6 | 1.06e6 | 1.38e6 | inactive
kdn | DRSC18328 | 1.72e6 | 1.68e6 | 1.03e6 | 1.21e6 | inactive
Scp1 | DRSC20799 | 1.33e6 | 1.71e6 | 1.24e6 | 1.23e6 | inactive
Scp1 | DRSC20803 | 1.53e6 | 1.69e6 | 1.11e6 | 1.20e6 | inactive
Scp1 | DRSC20806 | 1.50e6 | 1.58e6 | 1.09e6 | 1.18e6 | inactive
CG34454 | DRSC07864 | 1.69e6 | 1.67e6 | 1.00e6 | 1.23e6 | inactive
CG6023 | DRSC19970 | 1.42e6 | 1.50e6 | 1.04e6 | 1.17e6 | inactive
meigo | DRSC15877 | 1.50e6 | 1.55e6 | 8.94e5 | 9.67e5 | inactive
CG13471 | DRSC10015 | 1.35e6 | 1.36e6 | 1.10e6 | 1.24e6 | inactive
Ir76b | DRSC10831 | 1.58e6 | 1.57e6 | 1.35e6 | 1.41e6 | inactive
CG9813 | DRSC16569 | 1.68e6 | 1.73e6 | 1.31e6 | 1.46e6 | inactive
dpy | DRSC00233 | 1.38e6 | 1.42e6 | 1.02e6 | 1.14e6 | inactive
dpy | DRSC00234 | 1.40e6 | 1.48e6 | 1.03e6 | 1.14e6 | inactive
dpy | DRSC00472 | 1.67e6 | 1.64e6 | 1.09e6 | 1.25e6 | inactive
Vps13 | DRSC06817 | 1.58e6 | 1.63e6 | 1.33e6 | 1.45e6 | inactive
Srp68 | DRSC10475 | 1.48e6 | 1.53e6 | 1.21e6 | 1.17e6 | inactive
CG14316 | DRSC14795 | 1.34e6 | 1.35e6 | 1.07e6 | 1.21e6 | inactive
Nazo | DRSC14343 | 1.71e6 | 1.88e6 | 1.25e6 | 1.30e6 | inactive
CG7409 | DRSC10842 | 1.26e6 | 1.45e6 | 1.15e6 | 1.18e6 | inactive
Drak | DRSC19778 | 1.41e6 | 1.32e6 | 9.92e5 | 1.07e6 | inactive
CG15194 (retired record) | DRSC19642 | 1.62e6 | 1.69e6 | 1.03e6 | 1.16e6 | inactive
CG15194 (retired record) | DRSC19777 | 1.59e6 | 1.64e6 | 1.01e6 | 1.15e6 | inactive
Tsp42Ep | DRSC06871 | 1.51e6 | 1.66e6 | 1.15e6 | 1.22e6 | inactive
CG18662 | DRSC02691 | 1.53e6 | 1.57e6 | 1.22e6 | 1.39e6 | inactive
ovo | DRSC18050 | 5.86e5 | – | 9.29e5 | – | inactive
ovo | DRSC18812 | 1.76e6 | 1.73e6 | 1.07e6 | 1.18e6 | inactive
